Assay: blood chemistry: plasma concentrations in klotho mice
Assay type: in vivo
[1] = NH4Cl 0.28 M or acetazolamide 800 mg/l in drinking water

Row | SMILES | Ca^++ concentration in plasma [1] | plasma concentration of 1.25 (OH)2D3 (calcitriol) [1] | plasma concentration of FGF23 (NH4Cl 0.28 M in drinking water) | plasma concentration of parathyroid hormone (NH4Cl 0.28 M in drinking water)
1 | CC(=O)Nc1nnc(S(N)(=O)=O)s1 [acetazolamide] | remained slightly elevated | Neither the concentrations of 1.25 (OH)2D3 nor phosphate are affected | – | –
2 | Cl.N [ammonium chloride, Ammonium chloride] | – | did not lead to a significant change | did not lead to a significant change | did not lead to a significant change

Source: patent US20160346320A1, “SUBSTANCE FOR INHIBITING TISSUE CALCIFICATION, TISSUE FIBROSATION AND AGE-RELATED DISEASES” (Fresenius Kabi Deutschland GmbH, priority 2013, published 2016)
